# Library screening results

The filed quantity is “Percent Effect” (%).
The controls that fix the scale are not given in the record; negative values are as filed.
This is an unselected part of the compounds tested.

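Whole-cell assay for inhibitors of Mycobacterium tuberculosis growth, labelled Cornell in the record; the read-out is not stated. The concentration is filed as 10 mM, unlikely as a test dose, so the dose is not known. Higher means stronger inhibition (inferred from two other growth screens of the library). About 53,000 compounds were tested under these conditions; 1.7% (about 900) showed 50% or more at least once.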

O=C(c1cnccn1)N1CCN(Cc2cccnc2)c2ncccc2C1 read 12.72%. Result for COc1ccc(C)cc1S(=O)(=O)N[C@H]1CN(C(C)=O)C[C@@H]1C1CC1 was 13.64%. With Cn1cc(C(=O)N2CCCN(c3cccnn3)CC2)c2ccccc21 the screen gave 2.124%. CC(C)(C)C(O)CN1CCN(C(=O)COCC2CC2)CC1 (stereo unspecified) gave 32.46%. With Cc1ccc(C(=O)N2CCC3(CCC(=O)N(CC(N)=O)C3)CC2)cc1 the screen gave 4.339%. Cc1nccc(-c2ccccc2)c1C(=O)N1CC[C@](C)(O)C(C)(C)C1 read 7.956%. CC(NC(=O)C1CN(c2ncnc3c2nnn3C)C1)c1ccccc1 (stereo unspecified) read -12.75%.

Result for CCn1nc(CC(C)C)cc1C(=O)NCCCOC was 12.19%. O=S(=O)(NCC1(c2cccs2)CCOCC1)c1ccc2c(c1)OCCO2 gave -10.44%. Cc1cncc(C(=O)NCC2COCc3c(C)nnn3C2)c1 (stereo unspecified) gave 20.37%. With COc1ccc(-n2c(COC(C)C)n[nH]c2=O)cc1 the screen gave -22.99%. Result for CC(C)N(C)[C@@H]1CCN(C(=O)c2ccc[nH]2)[C@H]1Cc1cnn(C)c1 was 24.62%. For Cc1nc(N2CCN(C(=O)c3ccccc3)CC2)cc(-n2ccnc2)n1 the result was -1.345%. For Cc1ccc(CNC(=O)NCC(=O)NC(C)(C)C)c(N2CCCC2)c1 the result was 30.23%.

For O=C(O)C(F)(F)F.[H][C@@]12CCCO[C@]1([H])[C@H](NC(=O)CC1CC1)CN(c1ncccn1)C2 the result was 7.549%. O=C(O)C(F)(F)F.[H][C@]12CCN(C(=O)Cc3cccc(OC)c3)CC[C@@]1([H])S(=O)(=O)CCN2C gave 10.82%. c1ncc2c(n1)CN(Cc1nc(-c3ccsc3)no1)CC2 gave -7.655%. N#Cc1ncn(CCC(=O)Nc2c(Cl)cccc2Cl)n1 gave 58.03%. For CCn1c(C2CCCN(S(=O)(=O)C3CC3)C2)nn(CCN(C)C)c1=O (stereo unspecified) the result was 21.66%. CNC(=O)C(C)CNC(=O)c1coc(COc2cccc(F)c2F)n1 (stereo unspecified) read 3.648%. For Cc1nn(C)cc1NC(=O)CN1CCN(C2CCCC2)C(=O)C1 the result was 47.81%.

CC(=O)c1ccc(-c2cc(C(F)(F)F)cc(N(C)C)n2)cc1 read 27.28%. With Cc1nn(C)cc1-c1cncn1CCc1ccc2c(c1)OCCO2.Cl the screen gave 5.134%. c1ccc(CCN2CCN(C3CCOC4(CCOCC4)C3)CC2)nc1 (stereo unspecified) read 5.205%. Result for O=C(NCCc1nnc2n1CCC2)N1CCC2(CCCCC2)C1 was 5.294%. Result for COc1ncccc1C(=O)N1CCc2c(ncnc2N2CCOCC2)C1 was 5.776%. Cc1cc(NC(=O)C(C)N2CCN(c3ccccc3F)CC2)no1 (stereo unspecified) gave 2.813%. COCCn1/c(=N\C(=O)CN(C)S(C)(=O)=O)sc2cc(Cl)ccc21 read 4.647%.

With Cc1noc(C)c1CN1CCOCC12CCN(c1nccs1)CC2.O=C(O)C(F)(F)F the screen gave -2.189%. With Fc1cccc(Cl)c1CN1CCn2c(nnc2C2CC2)C1 the screen gave -50.16%. Result for Cc1nn(C)cc1C1CC(=O)Nc2c1cnn2C (stereo unspecified) was 30.3%. For CN1CCCn2c(nc(CNS(=O)(=O)C3CC3)cc2=O)C1.O=C(O)C(F)(F)F the result was -26.73%. c1cncc(CNCCc2cccs2)c1 read 34.29%. Result for CSCC(C)(O)CNc1cccc(F)c1C(C)=O (stereo unspecified) was 24.93%. Result for [H][C@@]12CCN(C(=O)c3ccnnc3)C[C@@]1([H])O[C@@H](c1nc(C)cs1)C2 was -11.03%.

Result for Cc1cc(C(=O)N2CCc3nc(C4CCCN4)ncc3C2)cs1.Cl (stereo unspecified) was -17.85%. With CN(C)C(=O)c1cn[nH]c1C1CCCN1Cc1cncn1C (stereo unspecified) the screen gave 10.12%. O=C(Nc1ccn(Cc2cccc3cccnc23)n1)C1COCCO1 (stereo unspecified) gave -2.342%. CCn1cc(-c2cc(C(F)F)n3nc(CCC(=O)O)nc3n2)cn1 read 4.028%. Cc1ccc(-c2cnnc(NCC3(N4CCOCC4)CCCC3)n2)o1 read 35.86%. CN(CCN1CCOCC1)C(=O)CCc1ccc(C(F)(F)F)cc1 gave -27.47%. Result for CC(Nc1cccc2c1OCCO2)C(=O)Nc1ccc(Cl)cc1 (stereo unspecified) was 24.54%.

CNC(=O)c1cc2c(nc1NCC1CC1)CCN(CC1CC1)CC2.O=C(O)C(F)(F)F.O=C(O)C(F)(F)F read -5.358%. CCc1nnc(CN2CCCCC2Cn2nc(C)nc2C)o1 (stereo unspecified) read -11.96%. With COCCCNC(=O)CN(C)C(C)c1nc(C)no1 (stereo unspecified) the screen gave 18.63%. With CC(C)c1ccc(CN[C@@H]2COC[C@H]2c2ccc(F)cc2)cc1 the screen gave 38.02%. CCC1CN(C(=O)c2cc(CN(C)CCc3ccccc3)on2)CCO1 (stereo unspecified) gave 25.2%. Result for COc1c(C)cnc(CN(C)C2CCN(C3CCOCC3)CC2)c1C was -3.934%. Cc1[nH]ncc1CCCNC(=O)Nc1ccc(F)cc1 read -28.46%.

C=Cc1cccc(CN2C[C@@H](CN(C)CC)[C@@H](CO)C2)c1 gave -2.111%. With Cc1nc[nH]c1CNC1CC(=O)N(CCc2cccc(Cl)c2)C1 (stereo unspecified) the screen gave -50.88%. With Cc1nn(C)c(C)c1C1COCCN1C(=O)c1cnc(N)c(Cl)c1 (stereo unspecified) the screen gave 14.82%. C[C@H]1CN(Cc2cnn(C)c2)C[C@@]12CCN(Cc1cccnc1)C2=O gave -0.623%. For O=C(CC1CCCC1)N1CCn2cc(Cn3cccn3)nc2C1.O=C(O)C(F)(F)F the result was -3.465%.

For reference, 5 entries once more:

structure	Percent Effect
Cc1cc(C(=O)N2CCc3nc(C4CCCN4)ncc3C2)cs1.Cl (stereo unspecified)	-17.85%
Cc1nccc(-c2ccccc2)c1C(=O)N1CC[C@](C)(O)C(C)(C)C1	7.956%
CC(=O)c1ccc(-c2cc(C(F)(F)F)cc(N(C)C)n2)cc1	27.28%
COc1ncccc1C(=O)N1CCc2c(ncnc2N2CCOCC2)C1	5.776%
O=C(NCCc1nnc2n1CCC2)N1CCC2(CCCCC2)C1	5.294%

Data taken from ChEMBL document CHEMBL3988442, “University of Dundee, Small-Polar-MMV Screening Library” (2021).